The source of these data is publication PMC7347136 (PLoS ONE, 2020).

Test [1] has as its system Colo205. Put plainly: Resazurin reduction cell viability assay. Type of test: cell-based. Conditions: Homo sapiens, COLO 205; 72 h continuous treatment; read-out: Colo205 IC50 ± SD. As for the experimental part:
Solid tumor cell lines were seeded in 100 μl medium into 96-well plates at an appropriate cell number determined by a cell dilution assay (Cal51–2000 cells/well; Colo205, MCF10A and 184A1–3000 cells/well and MDA-MB-468, HCC1954–4000 cells/well). AML suspension cells were seeded in 96-well plates at approximately 3000 cells per well. Cells were incubated overnight at 37°C, 5% CO2. The following day, 100 μl fresh medium containing increasing concentrations of appropriate compound was added and the cells were incubated for up to 72 h at 37°C, 5% CO2. For pulse treatment of solid (adherent) tumor cell lines, medium was aspirated and replaced with fresh drug-free medium. For pulse treatment of suspension lines, plates were centrifuged at 478 xg for 5 min at the end of the incubation period with compound, medium containing compound was carefully aspirated and replaced with fresh compound-free medium. A total of 72 h after the start of treatment, 20 μl of a 10X stock of resazurin sodium salt (Sigma-Aldrich, Dorset, UK) prepared in medium was added to the cells and incubated for up to 3 h. […] was measured on the Wallac Victor plate reader (Cambridge, UK) at 544–595 nm. IC50/70/90 calculations were determined in XLFit.
(Alamar Blue is a resazurin reagent that responds to reducing activity.)

Test [2] concerns tumor cells. Conditions: read-out: average anti-proliferative activity (IC50); cited from earlier work.

Structures are written as SMILES.

As to `CC[C@H](CO)Nc1nc(NCc2ccccc2)c2ncn(C(C)C)c2n1` [Seliciclib], the figures for the IC50 in test [1] and in test [2] were 13.3 µM and around 15 µM, respectively.

A word on the IC50: it is the midpoint of a concentration-inhibition curve.
